Measured values: paper PMC6499421
No constants are given. Whether binding was seen depends on the method and setting. For some assays here: Binding can be weak; no strength is given. For some assays here: Tags and fused reporters may be left off the sequences shown. For some assays here: In cells and extracts the contact can be indirect.

What was measured:
[1] = molecular target: T1, MKK1-nYFP (Arabidopsis thaliana) (UniProt Q94A06); assay: split reporter; BiFC: nYFP and cYFP fusions co-infiltrated in RFP-H2B transgenic N. benthamiana leaves, confocal microscopy
T1 sequence: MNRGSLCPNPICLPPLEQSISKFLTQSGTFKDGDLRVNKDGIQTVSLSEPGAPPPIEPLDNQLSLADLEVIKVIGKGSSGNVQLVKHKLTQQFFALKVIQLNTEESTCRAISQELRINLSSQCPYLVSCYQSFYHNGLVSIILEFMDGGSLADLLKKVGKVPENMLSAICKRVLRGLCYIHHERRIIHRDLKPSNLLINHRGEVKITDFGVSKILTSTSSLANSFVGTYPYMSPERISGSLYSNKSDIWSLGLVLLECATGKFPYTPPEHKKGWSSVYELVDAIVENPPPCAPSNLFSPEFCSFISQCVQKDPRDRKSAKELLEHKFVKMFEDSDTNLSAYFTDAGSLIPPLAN

[2] = molecular target: T2, MKK2-CTP-nYFP (Arabidopsis thaliana) (UniProt Q9S7U9); assay: as above
T2 sequence: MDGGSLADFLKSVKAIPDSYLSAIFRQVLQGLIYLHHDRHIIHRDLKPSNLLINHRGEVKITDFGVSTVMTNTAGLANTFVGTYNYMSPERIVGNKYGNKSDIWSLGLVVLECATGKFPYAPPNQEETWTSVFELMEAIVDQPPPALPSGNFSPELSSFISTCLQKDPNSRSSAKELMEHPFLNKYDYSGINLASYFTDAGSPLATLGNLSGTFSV

[3] = molecular target: T3, MKK2-KD-nYFP (Arabidopsis thaliana) (UniProt Q9S7U9); assay: as above
T3 sequence: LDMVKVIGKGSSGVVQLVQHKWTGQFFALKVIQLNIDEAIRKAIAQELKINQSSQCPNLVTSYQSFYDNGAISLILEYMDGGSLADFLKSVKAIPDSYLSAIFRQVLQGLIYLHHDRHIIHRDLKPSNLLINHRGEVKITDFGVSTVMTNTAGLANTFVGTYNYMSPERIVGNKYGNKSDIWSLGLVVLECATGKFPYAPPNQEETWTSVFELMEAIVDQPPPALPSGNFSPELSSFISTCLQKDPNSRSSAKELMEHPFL

[4] = molecular target: T4, MKK2-nYFP (Arabidopsis thaliana) (UniProt Q9S7U9); assay: as above
T4 sequence: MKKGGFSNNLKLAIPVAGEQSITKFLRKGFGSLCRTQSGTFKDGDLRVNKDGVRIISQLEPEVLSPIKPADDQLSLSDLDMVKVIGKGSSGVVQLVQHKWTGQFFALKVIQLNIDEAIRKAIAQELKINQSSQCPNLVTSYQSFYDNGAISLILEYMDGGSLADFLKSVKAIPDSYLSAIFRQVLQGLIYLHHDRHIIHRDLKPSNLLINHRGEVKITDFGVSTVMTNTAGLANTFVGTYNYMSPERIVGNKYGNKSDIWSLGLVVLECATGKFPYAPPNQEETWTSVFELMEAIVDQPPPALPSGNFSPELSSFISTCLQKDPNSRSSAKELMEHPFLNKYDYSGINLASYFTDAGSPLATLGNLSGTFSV

[5] = molecular target: T5, 3Flag-MKK2 (Arabidopsis thaliana) (UniProt Q9S7U9); assay: co-IP; constructs co-infiltrated in N. benthamiana leaves; IP with Anti-FLAG M2 magnetic beads in 40 mM Tris-HCl pH 7.5, 150 mM NaCl, 5 mM MgCl2, 2 mM EDTA, 5 mM DTT, 0.5% Triton X-100, 5% glycerol; blots with anti-GFP and anti-Flag
T5 sequence: T4 sequence

NLuc-AGO1 (Arabidopsis) = molecular target: T6, NLuc-AGO1 (Arabidopsis) (UniProt O04379); assay: split reporter; firefly luciferase complementation imaging (LCI): NLuc and CLuc fusions co-infiltrated in N. benthamiana leaves, luciferase activity recorded by CCD camera
T6 sequence: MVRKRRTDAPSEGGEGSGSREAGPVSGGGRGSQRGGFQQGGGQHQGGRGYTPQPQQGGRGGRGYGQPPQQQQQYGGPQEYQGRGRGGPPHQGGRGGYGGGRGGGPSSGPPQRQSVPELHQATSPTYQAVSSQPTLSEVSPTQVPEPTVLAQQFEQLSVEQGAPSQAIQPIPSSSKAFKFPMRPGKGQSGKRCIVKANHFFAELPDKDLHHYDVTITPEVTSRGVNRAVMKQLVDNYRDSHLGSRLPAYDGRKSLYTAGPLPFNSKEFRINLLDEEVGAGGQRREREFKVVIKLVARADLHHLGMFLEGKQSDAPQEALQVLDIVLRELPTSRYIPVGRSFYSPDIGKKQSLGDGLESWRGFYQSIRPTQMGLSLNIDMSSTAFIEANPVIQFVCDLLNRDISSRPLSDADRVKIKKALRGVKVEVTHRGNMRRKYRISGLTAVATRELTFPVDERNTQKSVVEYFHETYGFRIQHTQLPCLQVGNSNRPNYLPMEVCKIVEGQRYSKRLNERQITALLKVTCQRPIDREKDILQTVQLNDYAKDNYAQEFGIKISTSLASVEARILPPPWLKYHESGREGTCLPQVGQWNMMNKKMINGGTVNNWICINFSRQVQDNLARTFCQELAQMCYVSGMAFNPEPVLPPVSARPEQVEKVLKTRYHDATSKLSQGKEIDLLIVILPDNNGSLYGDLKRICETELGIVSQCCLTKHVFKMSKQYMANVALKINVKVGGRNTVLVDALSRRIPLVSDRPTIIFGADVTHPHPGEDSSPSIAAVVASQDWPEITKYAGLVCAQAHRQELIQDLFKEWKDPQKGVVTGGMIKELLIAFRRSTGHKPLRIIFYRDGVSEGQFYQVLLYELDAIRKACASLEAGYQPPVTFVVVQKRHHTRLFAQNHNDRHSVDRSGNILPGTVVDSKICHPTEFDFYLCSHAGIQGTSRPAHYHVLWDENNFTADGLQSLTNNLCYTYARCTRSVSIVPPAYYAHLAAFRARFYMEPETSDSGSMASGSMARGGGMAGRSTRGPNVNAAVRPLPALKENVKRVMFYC

[6] = molecular target: T7, BD-MKK1 (Arabidopsis thaliana) (UniProt Q94A06); assay: two-hybrid; pGADT7 (AD) and pGBKT7 (BD) fusions in S. cerevisiae Gold strain; growth on SD/-Leu/-Trp/-His with 5 mM 3-AT, 30°C
T7 sequence: T1 sequence

[7] = molecular target: T8, BD-MKK2 (Arabidopsis thaliana) (UniProt Q9S7U9); assay: as above
T8 sequence: T4 sequence

[8] = molecular target: T9, MKK1 (LCI construct) (Arabidopsis thaliana) (UniProt Q94A06); assay: split reporter; firefly luciferase complementation imaging (LCI): NLuc and CLuc fusions co-infiltrated in N. benthamiana leaves, luciferase activity recorded by CCD camera
T9 sequence: T1 sequence

[9] = molecular target: T10, MKK2 fused to CLuc (Arabidopsis thaliana) (UniProt Q9S7U9); assay: as above
T10 sequence: T4 sequence

For βC1-cYFP, the binding [1] was “no binding”, the binding [2] was “binds” and the binding [3] was “binds”. For the same substance, the binding [4] was “binds”.

For “endogenous actin protein (N. benthamiana (endogenous in leaves))”, the binding [5] was “no binding”.

In the case of GFP-βC1, the binding [5] is reported as “binds”.

With CLuc-CMV 2b (cucumber mosaic virus) the binding (NLuc-AGO1 (Arabidopsis)) was “binds”.

AD-βC1 was tested, and the binding [6] was “no binding” and the binding [7] was “binds”.

With βC1 fused to NLuc the binding [8] was “no binding” and the binding [9] was “binds”.
